Reference: patent US20060276624 (published 2006)
Read-outs that look alike come from different tables or passages of the source. Plain letter strings leave the end groups untold.

Experiment: general procedure: hybrid (solid and solution phase) peptide synthesis; 2-CTC resin; TBTU / 6-chloro HOBT / DIEA (solution phase coupling)

With EKNEQELLELDKWASLWNWF the step yield was 101%, the step yield (both steps) was 98.9% and the “final HPLC purity” value (coupling step, AN HPLC) was 80.0%.
